# In publication PMC6656771:
# No constants are given. Whether binding was seen depends on the method and setting. In cells and extracts the contact can be indirect. Binding calls can cover weak binding; strength is not graded here. Tags and fused reporters may be left off the sequences shown.
# Biological target: T1, Flag-USP47 (Ubiquitin-Specific Protease 47) (UniProt Q96K76)
# T1 sequence: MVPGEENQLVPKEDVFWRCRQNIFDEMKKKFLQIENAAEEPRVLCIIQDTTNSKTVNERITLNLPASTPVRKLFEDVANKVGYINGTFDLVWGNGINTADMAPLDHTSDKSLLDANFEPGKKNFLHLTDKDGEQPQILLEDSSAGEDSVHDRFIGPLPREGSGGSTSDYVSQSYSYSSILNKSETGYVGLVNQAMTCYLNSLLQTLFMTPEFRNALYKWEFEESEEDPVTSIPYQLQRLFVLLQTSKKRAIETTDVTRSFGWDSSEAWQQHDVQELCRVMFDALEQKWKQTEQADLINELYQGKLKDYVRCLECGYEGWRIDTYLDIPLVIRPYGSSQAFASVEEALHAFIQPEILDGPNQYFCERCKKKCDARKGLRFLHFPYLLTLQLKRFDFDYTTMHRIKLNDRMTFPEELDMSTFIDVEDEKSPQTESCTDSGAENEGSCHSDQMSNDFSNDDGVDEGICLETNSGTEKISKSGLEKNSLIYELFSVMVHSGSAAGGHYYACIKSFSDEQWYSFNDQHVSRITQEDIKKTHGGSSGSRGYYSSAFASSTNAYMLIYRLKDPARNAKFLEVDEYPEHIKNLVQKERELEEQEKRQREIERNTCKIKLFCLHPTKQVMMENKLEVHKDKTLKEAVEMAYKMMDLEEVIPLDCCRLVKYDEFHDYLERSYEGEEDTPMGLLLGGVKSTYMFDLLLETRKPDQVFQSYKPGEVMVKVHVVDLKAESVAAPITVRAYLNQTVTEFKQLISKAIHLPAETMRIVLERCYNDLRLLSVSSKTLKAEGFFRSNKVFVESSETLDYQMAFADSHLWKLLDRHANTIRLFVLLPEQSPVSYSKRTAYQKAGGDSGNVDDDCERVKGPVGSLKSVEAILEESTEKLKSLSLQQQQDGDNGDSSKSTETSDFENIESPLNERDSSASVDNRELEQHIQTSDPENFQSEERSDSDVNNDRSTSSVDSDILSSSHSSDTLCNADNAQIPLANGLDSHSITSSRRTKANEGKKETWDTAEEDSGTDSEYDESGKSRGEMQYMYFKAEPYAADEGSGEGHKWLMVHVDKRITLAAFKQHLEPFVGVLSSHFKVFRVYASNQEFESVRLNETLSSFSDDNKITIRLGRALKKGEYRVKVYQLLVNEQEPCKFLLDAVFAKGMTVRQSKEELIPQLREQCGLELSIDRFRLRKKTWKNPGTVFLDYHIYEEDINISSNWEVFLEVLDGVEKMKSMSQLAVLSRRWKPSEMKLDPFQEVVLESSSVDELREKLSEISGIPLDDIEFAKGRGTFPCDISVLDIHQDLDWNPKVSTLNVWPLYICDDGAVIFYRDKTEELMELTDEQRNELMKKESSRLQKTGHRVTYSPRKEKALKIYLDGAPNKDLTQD
# Experiment: co-IP; MEFs transfected with ERAP1 and/or Flag-USP47; whole-cell extracts in Triton Buffer (50 mM Tris-HCl pH 7.5, 250 mM sodium chloride, 50 mM sodium fluoride, 1 mM EDTA pH 8, 0.1% Triton); antibody overnight at 4 °C, Protein G- or Protein A-agarose beads, five washes, immunoblot; for Flag-USP47 with βTrCP also increasing amounts of ERAP1, Leu-SH for 24 h, or shERAP1
substance,measurement,value
endogenous β-transducin-repeat containing E3 ubiquitin protein ligase (βTrCP) (mouse (endogenous in MEFs)),binding,binds
